Reference: patent US8211917B2, “Methods for treating anxiety” (Allergan, Inc., priority 2007, dated 2012)
The name of at least one read-out is uncertain.

Tested on: mice
Experiment: Elevated plus maze (EPM) test
Assay type: in vivo
Settings: 15 min post dose, 5 min test

CN1C(=O)CN=C(c2ccccc2)c2cc(Cl)ccc21 [Diazepam, reference compound]
TIME OPEN (time spent in the open arms) (dose 0.5, intraperitoneal): 48.9 ± 11.3 s | TIME OPEN (time spent in the open arms) (dose 1, intraperitoneal): 63.0 ± 6.8 s | TIME OPEN (time spent in the open arms) (dose 1.5, intraperitoneal): 79.5 ± 11.0 s | TIME OPEN (time spent in the open arms) (dose 3, intraperitoneal): 89.6 ± 34.5 s
